Source: patent US20210128676A1, “METHOD OF TREATING PATIENTS WITH H[…] TYPE 1 AND LOW MEAN ARTERIAL PRESSURE” (Mallinckrodt Hospital Products IP Unlimited Company, priority 2019, published 2021)
Values joined by “and” are separate entries in the source; they are usually repeats but may differ in a detail not shown here. Equal values may be shown once. Not every detail of the peptide structures is certain; ends, links or a residue may be inferred. Positions of bridges follow the written chain, without caps; N, C: chain ends. Residues, ends and D or L forms follow the SMILES beside them.

Columns and labels:
[1] = test system: adult patients with HRS type 1; experiment: Randomized, placebo-controlled, double-blind study of intravenous terlipressin in HRS type 1, 307 patients stratified by baseline MAP; format: in vivo, human
[2] = test system: patients with well-defined HRS-1; experiment: Randomized, placebo-controlled, double-blind study of terlipressin plus albumin versus albumin alone in HRS-1 (300 subjects); format: in vivo, human
[3] = test system: patient having HRS-1 and low MAP; experiment: Change in blood pressure and heart rate after IV bolus dosing; format: in vivo, human
[4] = in vivo; cited from earlier work
[5] = Baseline MAP < 65 mmHg, N = 25, listed as terlipressin
[6] = Baseline MAP ≥ 65 mmHg, N = 128
[7] = Baseline MAP ≥ 65 mmHg, N = 128, listed as terlipressin

SMILES: NCCCC[C@H](NC(=O)[C@@H]1CCCN1C(=O)[C@@H]1CSSC[C@H](NC(=O)CNC(=O)CNC(=O)CN)C(=O)N[C@@H](Cc2ccc(O)cc2)C(=O)N[C@@H](Cc2ccccc2)C(=O)N[C@@H](CCC(N)=O)C(=O)N[C@@H](CC(N)=O)C(=O)N1)C(=O)NCC(N)=O [Terlipressin, N—[N—(N-glycylglycyl)glycyl]-8-L-lysinevasopressin] (H-GGGCYFQNCPKG-NH2; disulfide 4-9 (inferred))
- Confirmed HRS Reversal, % of patients ([1]; Baseline MAP < 65 mmHg, N = 25): (24%)
- Confirmed HRS Reversal, number of patients ([1]; Baseline MAP < 65 mmHg, N = 25): 6
- HRS Reversal, % of patients ([1]; Baseline MAP < 65 mmHg, N = 25): (24%)
- HRS Reversal, number of patients ([1]; Baseline MAP < 65 mmHg, N = 25): 6
- LS mean (SE) change in MAP, baseline to EOT ([1]; Baseline MAP < 65 mmHg, N = 25): 14.4 mmHg
- LS mean (SE) change in SCr, baseline to EOT ([1]; Baseline MAP < 65 mmHg, N = 25): -0.8 mg/dL
- Overall survival, alive at day 90, % of patients ([1]; Baseline MAP < 65 mmHg, N = 25): 68%
- Overall survival, alive at day 90, number of patients ([1]; Baseline MAP < 65 mmHg, N = 25): 17
- Transplant-free survival, alive at day 90, % of patients ([1]; Baseline MAP < 65 mmHg, N = 25): 68%
- Transplant-free survival, alive at day 90, number of patients ([1]; Baseline MAP < 65 mmHg, N = 25): 17
- Confirmed HRS Reversal, % of patients [1, 5]: 25%
- HRS Reversal, % of patients [1, 5]: 24%
- Confirmed HRS Reversal, % of patients [1, 6]: (24.2%)
- Confirmed HRS Reversal, number of patients [1, 6]: 31
- HRS Reversal, % of patients [1, 6]: (28.1%)
- HRS Reversal, number of patients [1, 6]: 36
- LS mean (SE) change in MAP, baseline to EOT [1, 6]: 2.0 mmHg
- LS mean (SE) change in SCr, baseline to EOT [1, 6]: -0.9 mg/dL
- Overall survival, alive at day 90, % of patients [1, 6]: 51.6%
- Overall survival, alive at day 90, number of patients [1, 6]: 66
- Transplant-free survival, alive at day 90, % of patients [1, 6]: 52.3%
- Transplant-free survival, alive at day 90, number of patients [1, 6]: 67
- Confirmed HRS Reversal, % of patients [1, 7]: 24.2%
- HRS Reversal, % of patients [1, 7]: 28.1%
- Transplant-free survival, alive at day 90, % of patients [1, 7]: 52% and 52.3%
- Alive and Transplant-Free at Day 90, % ([2]; Baseline MAP < 65 mmHg, N = 24): 20.8%
- Overall Survival up to 90 Days, Median Days of Survival ([2]; Baseline MAP < 65 mmHg, N = 24): 72.0 days
- Overall Survival up to 90 Days, Survival Estimate ([2]; Baseline MAP < 65 mmHg, N = 24): 0.497
- Overall Survival, Alive at Day 90, % ([2]; Baseline MAP < 65 mmHg, N = 24): 50.0%
- Transplant-Free Survival up to 90 Days, Median Days of Survival ([2]; Baseline MAP < 65 mmHg, N = 24): 20.0 days
- Transplant-Free Survival up to 90 Days, Survival Estimate ([2]; Baseline MAP < 65 mmHg, N = 24): 0.194
- proportion of patients who underwent LT ([2]; all randomized patients, 199 on terlipressin): 23.1%
- estimated maximum effect for MAP, increase [3]: about 16.2 mmHg
- estimated maximum effect for heart rate, decrease [3]: 10.6 beats/minute
- time after dosing at which increase in diastolic, systolic and MAP and decrease in heart rate are evident [3]: ≤ 5 min
- time after dosing for which increase in blood pressure and decrease in heart rate are maintained [3]: at least 6 hours
- duration of action [4]: 2 to 10 h
